In paper PMC5814800:
Results are given in words; binding and its absence hold for the method and conditions named. For some of these results: Binding can be weak; no strength is given. Where a sequence is shown, tags or fusion partners need not be part of it.

Tests used:
Experiment in all cases: two-hybrid; bacterial two-hybrid (adenylate cyclase T18 and T25 fusions) in E. coli BTH101; colony colour on LB agar with IPTG and X-Gal, 30°C, 24–48 h
[1] = target: T1, T18 fused to ϕC31 integrase aa 404–605 (pEY117) (Streptomyces phage ϕC31) (UniProt Q9T221)
T1 sequence: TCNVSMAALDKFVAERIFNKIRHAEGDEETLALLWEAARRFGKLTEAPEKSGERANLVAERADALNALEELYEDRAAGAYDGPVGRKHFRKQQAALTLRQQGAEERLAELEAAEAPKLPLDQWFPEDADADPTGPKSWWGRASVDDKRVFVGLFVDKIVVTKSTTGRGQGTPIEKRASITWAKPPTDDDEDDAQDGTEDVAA

[2] = target: T2, T18 fused to full length ϕC31 integrase (aa 1–605; pEY110) (Streptomyces phage ϕC31) (UniProt Q9T221)
T2 sequence: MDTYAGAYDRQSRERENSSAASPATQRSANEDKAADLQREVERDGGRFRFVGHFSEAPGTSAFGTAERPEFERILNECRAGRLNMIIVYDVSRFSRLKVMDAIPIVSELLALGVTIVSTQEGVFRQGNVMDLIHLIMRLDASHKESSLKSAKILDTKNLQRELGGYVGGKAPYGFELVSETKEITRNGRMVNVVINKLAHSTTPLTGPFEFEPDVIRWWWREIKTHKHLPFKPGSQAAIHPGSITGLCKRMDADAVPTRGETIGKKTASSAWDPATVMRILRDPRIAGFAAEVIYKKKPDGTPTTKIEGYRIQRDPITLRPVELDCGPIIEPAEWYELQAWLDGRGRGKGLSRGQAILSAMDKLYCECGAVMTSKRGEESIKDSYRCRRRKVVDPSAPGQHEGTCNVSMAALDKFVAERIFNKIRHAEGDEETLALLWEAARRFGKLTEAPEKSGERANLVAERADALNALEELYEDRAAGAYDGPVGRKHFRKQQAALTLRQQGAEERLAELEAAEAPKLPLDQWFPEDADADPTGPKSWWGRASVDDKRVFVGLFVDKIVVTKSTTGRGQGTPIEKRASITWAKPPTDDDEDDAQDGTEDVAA

[3] = target: T3, T18 fused to ϕC31 integrase aa 1–203 (pEY114) (Streptomyces phage ϕC31) (UniProt Q9T221)
T3 sequence: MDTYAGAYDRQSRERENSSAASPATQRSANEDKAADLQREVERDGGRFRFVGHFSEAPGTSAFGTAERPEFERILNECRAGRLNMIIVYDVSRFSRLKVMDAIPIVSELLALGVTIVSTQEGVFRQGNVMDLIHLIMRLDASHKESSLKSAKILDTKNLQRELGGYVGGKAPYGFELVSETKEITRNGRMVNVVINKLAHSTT

[4] = target: T4, T18 fused to ϕC31 integrase aa 1–407 (pEY115) (Streptomyces phage ϕC31) (UniProt Q9T221)
T4 sequence: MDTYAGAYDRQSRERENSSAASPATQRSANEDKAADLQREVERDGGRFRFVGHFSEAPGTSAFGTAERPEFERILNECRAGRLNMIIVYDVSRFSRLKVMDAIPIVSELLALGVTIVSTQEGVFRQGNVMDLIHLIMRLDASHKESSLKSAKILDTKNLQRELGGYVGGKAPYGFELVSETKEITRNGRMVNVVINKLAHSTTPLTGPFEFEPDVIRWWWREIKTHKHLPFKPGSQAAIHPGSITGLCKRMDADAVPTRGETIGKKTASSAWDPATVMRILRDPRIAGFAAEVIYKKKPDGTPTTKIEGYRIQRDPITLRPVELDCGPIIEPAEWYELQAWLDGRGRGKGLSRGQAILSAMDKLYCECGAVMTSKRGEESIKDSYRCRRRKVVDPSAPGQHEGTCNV

Substance: T25-ϕC31 gp3 (wild type) fusion protein (Streptomyces phage ϕC31)
- binding [1]: binds
- binding [2]: binds
- binding [3]: no binding
- binding [4]: no binding
